In the supplement of paper PMC10849652:
Some of the results follow.

By UniProt entry, the sequences of proteins in these tests, tags left out. Where a name states a change or a piece, a line headed by the entry shows the natural chain unless it says otherwise.
UniProt Q8IVD9: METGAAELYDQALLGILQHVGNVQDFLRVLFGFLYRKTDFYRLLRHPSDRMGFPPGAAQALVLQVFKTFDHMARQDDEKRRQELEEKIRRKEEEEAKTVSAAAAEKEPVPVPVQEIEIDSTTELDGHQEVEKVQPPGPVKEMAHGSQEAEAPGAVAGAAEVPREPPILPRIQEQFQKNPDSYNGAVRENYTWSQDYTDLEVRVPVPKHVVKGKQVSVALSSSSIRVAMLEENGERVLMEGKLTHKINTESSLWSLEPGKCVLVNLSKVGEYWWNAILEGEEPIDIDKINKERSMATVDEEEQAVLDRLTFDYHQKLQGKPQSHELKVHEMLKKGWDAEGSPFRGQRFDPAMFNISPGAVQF
UniProt Q92882: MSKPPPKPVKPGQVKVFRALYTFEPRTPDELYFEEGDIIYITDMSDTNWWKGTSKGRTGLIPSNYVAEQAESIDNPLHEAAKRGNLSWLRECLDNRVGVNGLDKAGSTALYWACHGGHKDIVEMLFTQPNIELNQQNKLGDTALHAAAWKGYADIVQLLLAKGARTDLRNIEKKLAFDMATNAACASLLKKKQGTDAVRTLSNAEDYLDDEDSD
UniProt Q9BQG2: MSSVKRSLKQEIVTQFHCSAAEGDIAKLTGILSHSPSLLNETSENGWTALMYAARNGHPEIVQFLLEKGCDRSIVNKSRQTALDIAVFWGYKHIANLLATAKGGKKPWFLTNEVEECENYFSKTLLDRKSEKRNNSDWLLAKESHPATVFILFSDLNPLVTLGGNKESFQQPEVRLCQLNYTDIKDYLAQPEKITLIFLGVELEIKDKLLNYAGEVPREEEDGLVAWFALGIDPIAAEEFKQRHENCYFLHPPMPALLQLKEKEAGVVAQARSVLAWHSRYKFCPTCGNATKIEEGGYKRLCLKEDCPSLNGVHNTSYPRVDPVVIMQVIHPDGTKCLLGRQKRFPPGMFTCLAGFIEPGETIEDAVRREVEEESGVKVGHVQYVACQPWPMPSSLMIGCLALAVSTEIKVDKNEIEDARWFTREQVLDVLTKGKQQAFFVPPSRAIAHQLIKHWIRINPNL
UniProt Q9BVL2: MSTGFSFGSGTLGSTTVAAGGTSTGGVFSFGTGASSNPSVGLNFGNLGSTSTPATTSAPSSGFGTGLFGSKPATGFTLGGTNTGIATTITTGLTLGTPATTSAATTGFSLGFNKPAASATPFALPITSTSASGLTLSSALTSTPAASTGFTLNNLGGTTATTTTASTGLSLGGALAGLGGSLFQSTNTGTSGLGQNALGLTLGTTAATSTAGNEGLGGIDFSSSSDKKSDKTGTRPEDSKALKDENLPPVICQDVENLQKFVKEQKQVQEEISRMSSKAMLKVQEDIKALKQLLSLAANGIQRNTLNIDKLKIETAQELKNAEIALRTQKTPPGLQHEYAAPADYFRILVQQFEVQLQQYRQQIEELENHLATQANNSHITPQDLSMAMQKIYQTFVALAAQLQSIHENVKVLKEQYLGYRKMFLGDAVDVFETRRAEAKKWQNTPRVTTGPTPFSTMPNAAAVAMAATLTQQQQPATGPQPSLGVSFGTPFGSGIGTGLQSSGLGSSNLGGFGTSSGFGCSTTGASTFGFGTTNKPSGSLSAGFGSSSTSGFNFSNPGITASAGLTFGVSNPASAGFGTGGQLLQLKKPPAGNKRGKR
UniProt Q32P28: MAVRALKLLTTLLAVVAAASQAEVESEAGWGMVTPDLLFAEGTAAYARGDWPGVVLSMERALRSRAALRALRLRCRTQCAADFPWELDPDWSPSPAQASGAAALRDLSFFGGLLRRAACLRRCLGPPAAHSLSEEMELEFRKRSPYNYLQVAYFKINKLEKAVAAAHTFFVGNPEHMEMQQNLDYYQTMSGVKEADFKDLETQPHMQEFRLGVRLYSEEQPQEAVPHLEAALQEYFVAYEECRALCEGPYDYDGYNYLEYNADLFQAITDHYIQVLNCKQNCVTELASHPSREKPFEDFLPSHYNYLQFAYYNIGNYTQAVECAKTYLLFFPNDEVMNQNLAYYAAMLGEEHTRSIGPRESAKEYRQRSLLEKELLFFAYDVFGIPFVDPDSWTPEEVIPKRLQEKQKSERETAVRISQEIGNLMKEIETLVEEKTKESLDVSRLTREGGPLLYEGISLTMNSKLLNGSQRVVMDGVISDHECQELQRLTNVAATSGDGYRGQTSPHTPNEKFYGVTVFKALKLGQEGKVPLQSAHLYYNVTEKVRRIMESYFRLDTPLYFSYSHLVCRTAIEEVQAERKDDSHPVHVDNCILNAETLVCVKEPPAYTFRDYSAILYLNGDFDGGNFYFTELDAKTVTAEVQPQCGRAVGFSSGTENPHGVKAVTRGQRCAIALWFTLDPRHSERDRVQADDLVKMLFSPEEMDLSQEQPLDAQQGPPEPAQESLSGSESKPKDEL
UniProt Q96RS6: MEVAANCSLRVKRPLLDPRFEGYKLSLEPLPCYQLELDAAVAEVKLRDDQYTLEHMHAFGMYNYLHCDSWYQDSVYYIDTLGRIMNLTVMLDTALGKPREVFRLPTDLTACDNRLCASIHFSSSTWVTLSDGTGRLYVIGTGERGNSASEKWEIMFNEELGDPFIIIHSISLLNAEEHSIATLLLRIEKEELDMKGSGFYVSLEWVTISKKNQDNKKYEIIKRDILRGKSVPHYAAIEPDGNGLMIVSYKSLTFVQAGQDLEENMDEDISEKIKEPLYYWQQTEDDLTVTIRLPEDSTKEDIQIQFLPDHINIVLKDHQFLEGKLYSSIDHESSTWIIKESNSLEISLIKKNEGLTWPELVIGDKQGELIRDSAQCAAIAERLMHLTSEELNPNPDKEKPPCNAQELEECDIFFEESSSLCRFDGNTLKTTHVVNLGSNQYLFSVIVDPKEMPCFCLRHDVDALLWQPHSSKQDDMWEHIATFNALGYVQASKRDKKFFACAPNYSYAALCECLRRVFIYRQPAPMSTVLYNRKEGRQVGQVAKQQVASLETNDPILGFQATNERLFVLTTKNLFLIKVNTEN
UniProt Q8NFH3: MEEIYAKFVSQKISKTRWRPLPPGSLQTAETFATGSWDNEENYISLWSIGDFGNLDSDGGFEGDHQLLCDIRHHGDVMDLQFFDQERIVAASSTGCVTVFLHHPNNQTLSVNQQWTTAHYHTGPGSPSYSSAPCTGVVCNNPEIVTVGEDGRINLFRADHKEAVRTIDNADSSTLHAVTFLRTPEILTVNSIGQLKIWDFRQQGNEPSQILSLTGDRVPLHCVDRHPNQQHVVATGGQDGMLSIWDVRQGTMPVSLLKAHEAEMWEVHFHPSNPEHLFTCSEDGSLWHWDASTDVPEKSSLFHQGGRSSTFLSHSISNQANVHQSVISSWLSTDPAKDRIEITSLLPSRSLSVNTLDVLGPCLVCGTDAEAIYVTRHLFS
UniProt Q8NFH5: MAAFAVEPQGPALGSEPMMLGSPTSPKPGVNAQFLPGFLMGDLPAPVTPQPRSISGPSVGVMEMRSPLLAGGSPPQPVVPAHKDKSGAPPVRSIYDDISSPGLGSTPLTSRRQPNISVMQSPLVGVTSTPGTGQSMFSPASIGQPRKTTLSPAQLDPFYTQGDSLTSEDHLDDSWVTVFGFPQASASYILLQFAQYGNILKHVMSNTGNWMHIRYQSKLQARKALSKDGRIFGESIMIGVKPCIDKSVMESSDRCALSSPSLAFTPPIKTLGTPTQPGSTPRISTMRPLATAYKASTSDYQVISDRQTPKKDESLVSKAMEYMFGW
UniProt Q9NTK5, whole entry, looked up: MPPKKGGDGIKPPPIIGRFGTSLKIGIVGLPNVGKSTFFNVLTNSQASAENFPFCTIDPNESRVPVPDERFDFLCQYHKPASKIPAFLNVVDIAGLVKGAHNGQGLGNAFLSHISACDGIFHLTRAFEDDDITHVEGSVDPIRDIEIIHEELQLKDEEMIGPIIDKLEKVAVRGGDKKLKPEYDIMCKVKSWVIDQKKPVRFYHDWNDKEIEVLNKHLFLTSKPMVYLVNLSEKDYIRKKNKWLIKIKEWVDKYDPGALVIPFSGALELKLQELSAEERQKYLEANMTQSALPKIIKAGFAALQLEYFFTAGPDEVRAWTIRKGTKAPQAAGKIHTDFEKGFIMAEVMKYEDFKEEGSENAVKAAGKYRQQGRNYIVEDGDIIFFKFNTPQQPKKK
UniProt P00480: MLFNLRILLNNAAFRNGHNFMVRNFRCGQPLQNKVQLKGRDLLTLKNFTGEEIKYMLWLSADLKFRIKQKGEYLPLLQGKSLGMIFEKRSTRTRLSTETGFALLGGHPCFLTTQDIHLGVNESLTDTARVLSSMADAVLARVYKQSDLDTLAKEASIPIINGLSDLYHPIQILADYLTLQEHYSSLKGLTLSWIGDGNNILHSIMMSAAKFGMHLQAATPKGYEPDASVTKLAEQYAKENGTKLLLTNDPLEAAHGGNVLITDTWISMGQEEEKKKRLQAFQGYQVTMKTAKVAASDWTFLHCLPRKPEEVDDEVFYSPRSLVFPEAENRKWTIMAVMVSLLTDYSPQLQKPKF
UniProt Q8WV74: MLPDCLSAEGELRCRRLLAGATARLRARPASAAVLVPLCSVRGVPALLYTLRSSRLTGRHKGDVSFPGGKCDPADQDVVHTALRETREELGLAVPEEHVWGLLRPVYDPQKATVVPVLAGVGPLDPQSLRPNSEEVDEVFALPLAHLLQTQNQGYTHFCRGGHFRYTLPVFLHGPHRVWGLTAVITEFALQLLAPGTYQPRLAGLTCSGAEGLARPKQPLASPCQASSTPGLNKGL
UniProt Q8N573: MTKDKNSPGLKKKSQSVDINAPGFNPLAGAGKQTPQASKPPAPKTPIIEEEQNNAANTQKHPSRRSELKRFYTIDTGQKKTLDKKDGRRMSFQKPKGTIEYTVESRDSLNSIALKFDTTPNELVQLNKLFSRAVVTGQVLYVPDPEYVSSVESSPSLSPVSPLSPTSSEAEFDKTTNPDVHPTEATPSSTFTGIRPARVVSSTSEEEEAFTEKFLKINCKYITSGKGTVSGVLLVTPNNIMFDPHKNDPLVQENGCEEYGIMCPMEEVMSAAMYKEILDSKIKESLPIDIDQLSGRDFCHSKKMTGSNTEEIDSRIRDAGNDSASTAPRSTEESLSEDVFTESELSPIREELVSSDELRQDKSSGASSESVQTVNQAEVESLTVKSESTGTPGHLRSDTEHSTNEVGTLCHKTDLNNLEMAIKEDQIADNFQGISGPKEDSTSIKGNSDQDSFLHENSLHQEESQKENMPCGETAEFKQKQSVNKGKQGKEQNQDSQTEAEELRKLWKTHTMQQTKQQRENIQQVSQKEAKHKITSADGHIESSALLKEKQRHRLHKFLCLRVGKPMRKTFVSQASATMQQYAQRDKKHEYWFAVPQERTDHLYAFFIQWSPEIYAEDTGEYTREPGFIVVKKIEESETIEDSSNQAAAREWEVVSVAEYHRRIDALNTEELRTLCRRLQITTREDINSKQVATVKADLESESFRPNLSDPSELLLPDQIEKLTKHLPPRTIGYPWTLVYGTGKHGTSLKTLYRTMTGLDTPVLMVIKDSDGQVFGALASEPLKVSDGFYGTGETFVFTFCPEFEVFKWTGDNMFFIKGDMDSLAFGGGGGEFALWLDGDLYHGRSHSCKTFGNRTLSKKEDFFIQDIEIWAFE
UniProt Q99571: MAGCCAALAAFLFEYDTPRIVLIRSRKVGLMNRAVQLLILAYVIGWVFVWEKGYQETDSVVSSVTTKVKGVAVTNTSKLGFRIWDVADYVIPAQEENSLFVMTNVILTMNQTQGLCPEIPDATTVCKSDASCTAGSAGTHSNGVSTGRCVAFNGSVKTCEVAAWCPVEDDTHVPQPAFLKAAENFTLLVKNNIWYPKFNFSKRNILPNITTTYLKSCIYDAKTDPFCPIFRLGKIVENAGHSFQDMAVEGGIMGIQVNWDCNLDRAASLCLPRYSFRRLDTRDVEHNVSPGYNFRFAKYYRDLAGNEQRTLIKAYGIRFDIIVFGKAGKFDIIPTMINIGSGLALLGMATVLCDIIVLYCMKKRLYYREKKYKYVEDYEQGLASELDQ
UniProt Q96CV9, whole entry, looked up: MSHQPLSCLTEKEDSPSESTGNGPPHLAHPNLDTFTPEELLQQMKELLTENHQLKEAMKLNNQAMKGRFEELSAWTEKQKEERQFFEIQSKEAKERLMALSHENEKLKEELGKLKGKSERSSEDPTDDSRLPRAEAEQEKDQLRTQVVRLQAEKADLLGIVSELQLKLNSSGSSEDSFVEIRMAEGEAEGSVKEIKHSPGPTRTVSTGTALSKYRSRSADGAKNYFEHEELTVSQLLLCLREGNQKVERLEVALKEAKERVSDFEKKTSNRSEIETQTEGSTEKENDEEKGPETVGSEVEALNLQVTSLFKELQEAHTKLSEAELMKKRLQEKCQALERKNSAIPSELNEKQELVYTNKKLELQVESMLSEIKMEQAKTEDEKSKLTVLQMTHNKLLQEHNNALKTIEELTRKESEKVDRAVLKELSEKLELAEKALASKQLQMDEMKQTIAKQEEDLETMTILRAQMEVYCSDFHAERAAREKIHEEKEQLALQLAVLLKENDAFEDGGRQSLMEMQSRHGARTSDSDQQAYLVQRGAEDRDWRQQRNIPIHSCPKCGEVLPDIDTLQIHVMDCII

Legend:
Test in all cases: log2 fold change, soluble protein after heating vs DMSO (PISA); higher = thermal stabilisation; K562 cells, 10 uM, 30 min; active = over 0.2 and 3.5 SD of the protein, either way, in both replicates (recomputed)
saracatinib = compound: CN1CCN(CCOc2cc(OC3CCOCC3)c3c(Nc4c(Cl)ccc5c4OCO5)ncnc3c2)CC1 [saracatinib]
Summary of the method: (§1)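 Aliquots of K562 cells (2×10^6 cells/mL) treated with 10 μM compound for 30 min were heated for 3 min over 48°C-58°C. After pooling and extraction in PBS with 0.5% NP-40 at 4°C, soluble protein from a 21,000xg, 90 min spin was quantified by TMTpro 16plex LC-MS/MS with channel sums equalised. Thermal stability is expressed against control samples, from duplicates, as a log2 fold change.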

sotrastaurin = compound: CN1CCN(c2nc(C3=C(c4c[nH]c5ccccc45)C(=O)NC3=O)c3ccccc3n2)CC1 [sotrastaurin]
Summary of the method: as §1

alvocidib = compound: CN1CC[C@H](c2c(O)cc(O)c3c(=O)cc(-c4ccccc4Cl)oc23)[C@H](O)C1 [alvocidib]
Summary of the method: as §1

Tubastatin A = compound: CN1CCc2c(c3ccccc3n2Cc2ccc(C(=O)NO)cc2)C1 [Tubastatin A]
Summary of the method: as §1

[1] = compound: CNC(=O)C1=CC=CC=C1NC2=NC(=NC=C2Cl)NC3=C(C=C(C=C3)N4CCOCC4)OC
Summary of the method: as §1

defactinib = compound: CNC(=O)c1ccc(Nc2ncc(C(F)(F)F)c(NCc3nccnc3N(C)S(C)(=O)=O)n2)cc1 [defactinib]
Summary of the method: as §1

rucaparib = compound: CNCc1ccc(-c2[nH]c3cc(F)cc4c3c2CCNC4=O)cc1 [rucaparib]
Summary of the method: as §1

[2] = compound: CNc1nc(-c2ccc3c(N)n[nH]c3c2)cc(N2C[C@@H](C(=O)NC3CCCCC3)CC[C@H]2C)n1
Summary of the method: as §1

encorafenib = compound: COC(=O)N[C@@H](C)CNc1nccc(-c2cn(C(C)C)nc2-c2cc(Cl)cc(NS(C)(=O)=O)c2F)n1 [encorafenib]
Summary of the method: as §1

[3] = compound: COC(=O)[C@H](CCSC)NC(=O)C1=C(C=C(C=C1)NC[C@H](CS)N)C2=CC=CC=C2
Summary of the method: as §1

Measured: log2 fold change

OTUB1 (UniProt Q96FW1)
inactive: saracatinib 0.06 | sotrastaurin 0.044 | alvocidib -0.031 | Tubastatin A 0.015 | [1] 0.02 | defactinib -0.033 | rucaparib -0.041 | [2] -0.01 | encorafenib 0.014 | [3] 0.014

NUDCD3 (UniProt Q8IVD9)
inactive: saracatinib -0.012 | sotrastaurin -0.08 | alvocidib -0.119 | Tubastatin A 0.062 | [1] 0.021 | defactinib -0.15 | rucaparib -0.003 | [2] 0.042 | encorafenib 0.029 | [3] -0.015

OSTF1 (UniProt Q92882)
inactive: saracatinib 0.015 | sotrastaurin 0.033 | alvocidib -0.006 | Tubastatin A 0.024 | [1] 0.024 | defactinib -0.099 | rucaparib -0.077 | [2] -0.044 | encorafenib -0.018 | [3] -0.15

NUCB1 (UniProt Q02818)
inactive: saracatinib 0.026 | sotrastaurin 0.045 | alvocidib 0.005 | Tubastatin A -0.006 | [1] 0.019 | defactinib -0.006 | rucaparib -0.049 | [2] -0.023 | encorafenib -0.028 | [3] 0.039

NUDT12 (UniProt Q9BQG2)
inactive: saracatinib -0.02 | sotrastaurin 0.035 | alvocidib -0.007 | Tubastatin A 0.011 | [1] 0.034 | defactinib -0.045 | rucaparib -0.02 | [2] 0.039 | encorafenib -0.002 | [3] -0.036

NUP58 (UniProt Q9BVL2)
inactive: saracatinib -0.064 | sotrastaurin 0.005 | alvocidib -0.017 | Tubastatin A 0.01 | [1] 0.021 | defactinib -0.001 | rucaparib -0.051 | [2] -0.015 | encorafenib 0.003 | [3] 0.02

NUP88 (UniProt Q99567)
inactive: saracatinib -0.054 | sotrastaurin -0.214 | alvocidib 0.014 | Tubastatin A 0.037 | [1] 0.02 | defactinib 0.01 | rucaparib 0.207 | [2] 0.076 | encorafenib 0.166 | [3] -0.058

P3H1 (UniProt Q32P28)
inactive: saracatinib -0.094 | sotrastaurin -0.038 | alvocidib 0.03 | Tubastatin A 0.068 | [1] 0.027 | defactinib 0.071 | rucaparib 0.069 | [2] 0.046 | encorafenib 0.076 | [3] -0.026

NUDCD1 (UniProt Q96RS6)
inactive: saracatinib 0.011 | sotrastaurin -0.026 | alvocidib -0.097 | Tubastatin A -0.023 | [1] 0.014 | defactinib -0.079 | rucaparib -0.047 | [2] -0.036 | encorafenib 0.008 | [3] -0.008

Reprinted from the listing (5 entries):
NUDT12 (UniProt Q9BQG2)
inactive: saracatinib -0.02 | sotrastaurin 0.035 | alvocidib -0.007 | Tubastatin A 0.011 | [1] 0.034 | defactinib -0.045 | rucaparib -0.02 | [2] 0.039 | encorafenib -0.002 | [3] -0.036

NUP58 (UniProt Q9BVL2)
inactive: saracatinib -0.064 | sotrastaurin 0.005 | alvocidib -0.017 | Tubastatin A 0.01 | [1] 0.021 | defactinib -0.001 | rucaparib -0.051 | [2] -0.015 | encorafenib 0.003 | [3] 0.02

NUP88 (UniProt Q99567)
inactive: saracatinib -0.054 | sotrastaurin -0.214 | alvocidib 0.014 | Tubastatin A 0.037 | [1] 0.02 | defactinib 0.01 | rucaparib 0.207 | [2] 0.076 | encorafenib 0.166 | [3] -0.058

P3H1 (UniProt Q32P28)
inactive: saracatinib -0.094 | sotrastaurin -0.038 | alvocidib 0.03 | Tubastatin A 0.068 | [1] 0.027 | defactinib 0.071 | rucaparib 0.069 | [2] 0.046 | encorafenib 0.076 | [3] -0.026

NUDCD1 (UniProt Q96RS6)
inactive: saracatinib 0.011 | sotrastaurin -0.026 | alvocidib -0.097 | Tubastatin A -0.023 | [1] 0.014 | defactinib -0.079 | rucaparib -0.047 | [2] -0.036 | encorafenib 0.008 | [3] -0.008

Next results follow:

NUP43 (UniProt Q8NFH3)
inactive: saracatinib 0.041 | sotrastaurin 0.005 | alvocidib -0.043 | Tubastatin A 0.036 | [1] -0.023 | defactinib -0.018 | rucaparib 0.004 | [2] -0.049 | encorafenib 0.008 | [3] 0.042

OS9 (UniProt Q13438)
inactive: saracatinib -0.077 | sotrastaurin -0.029 | alvocidib 0.024 | Tubastatin A 0.069 | [1] 0.009 | defactinib 0.035 | rucaparib 0.027 | [2] -0.022 | encorafenib 0.013 | [3] -0.011

NUDT4 (UniProt Q9NZJ9)
inactive: saracatinib 0.005 | sotrastaurin -0.046 | alvocidib -0.076 | Tubastatin A -0.008 | [1] 0.039 | defactinib -0.084 | rucaparib 0.008 | [2] -0.031 | encorafenib 0.011 | [3] -0.059

OGDH (UniProt Q02218)
inactive: saracatinib -0.135 | sotrastaurin -0.087 | alvocidib 0.039 | Tubastatin A 0.1 | [1] -0.034 | defactinib 0.051 | rucaparib 0.075 | [2] 0.151 | encorafenib 0.02 | [3] -0.019

NUP35 (UniProt Q8NFH5)
inactive: saracatinib -0.104 | sotrastaurin 0.002 | alvocidib -0.013 | Tubastatin A 0.021 | [1] -0.033 | defactinib -0.071 | rucaparib 0.02 | [2] 0.016 | encorafenib 0.024 | [3] 0.06

OLA1 (UniProt Q9NTK5)
inactive: saracatinib 0.012 | sotrastaurin 0.005 | alvocidib -0.027 | Tubastatin A 0.004 | [1] -0.032 | defactinib -0.027 | rucaparib -0.041 | [2] -0.026 | encorafenib 0.025 | [3] 0.006

OTUD7B (UniProt Q6GQQ9)
inactive: saracatinib 0.021 | sotrastaurin -0.392 | alvocidib 0.071 | Tubastatin A 0.083 | [1] 0.063 | defactinib -0.148 | rucaparib -0.122 | [2] -0.027 | encorafenib 0.002 | [3] 0.006

OTC (UniProt P00480)
inactive: saracatinib -0.139 | sotrastaurin 0.097 | alvocidib 0.143 | Tubastatin A 0.031 | [1] 0.02 | defactinib 0 | rucaparib -0.251 | [2] -0.161 | encorafenib 0.058 | [3] 0.082

NUDT9 (UniProt Q9BW91)
inactive: saracatinib -0.065 | sotrastaurin -0.023 | alvocidib -0.046 | Tubastatin A -0.029 | [1] 0.049 | defactinib -0.047 | rucaparib -0.057 | [2] -0.035 | encorafenib 0.037 | [3] -0.027

NUDT8 (UniProt Q8WV74)
inactive: saracatinib 0.139 | sotrastaurin 0.078 | alvocidib -0.086 | Tubastatin A 0.07 | [1] -0.014 | defactinib 0.031 | rucaparib -0.101 | [2] 0.003 | encorafenib 0.354 | [3] 0.071

OXR1 (UniProt Q8N573)
inactive: saracatinib -0.039 | sotrastaurin -0.049 | Tubastatin A 0.008 | [1] -0.038 | defactinib -0.059 | rucaparib -0.014 | [2] -0.063 | encorafenib 0 | [3] 0.003

P2RX4 isoform 2 (UniProt Q99571)
inactive: saracatinib -0.046 | sotrastaurin -0.076 | alvocidib -0.032 | Tubastatin A 0.03 | [1] -0.006 | defactinib 0.013 | [2] 0.034 | [3] 0.019

NTMT1 (UniProt Q9BV86)
inactive: saracatinib -0.048 | sotrastaurin 0.055 | Tubastatin A -0.071 | [1] -0.032 | defactinib -0.081 | rucaparib 0.169 | [2] 0.184 | encorafenib 0.06 | [3] -0.157

OSBP (UniProt P22059)
inactive: saracatinib -0.051 | sotrastaurin -0.147 | Tubastatin A 0.037 | [1] 0.062 | defactinib -0.066 | rucaparib -0.11 | [2] 0.062 | encorafenib -0.006 | [3] -0.001

NUDT5 (UniProt C9JYY9)
inactive: saracatinib -0.103 | sotrastaurin -0.12 | alvocidib 0.173 | Tubastatin A 0.161 | [1] -0.386 | defactinib 0.077 | [2] -0.001 | [3] 0.137

P4HA2 (UniProt O15460)
inactive: saracatinib 0.002 | sotrastaurin -0.033 | Tubastatin A 0.098 | [1] 0.003 | defactinib 0.085 | rucaparib 0.145 | [2] 0.016 | encorafenib -0.019 | [3] 0.001

OPTN (UniProt Q96CV9)
inactive: saracatinib 0.119 | sotrastaurin -0.071 | alvocidib -0.054 | Tubastatin A 0.039 | [1] 0.007 | defactinib -0.04 | [2] -0.089 | [3] -0.12

NT5C3B (UniProt Q969T7)
inactive: saracatinib 0.019 | sotrastaurin -0.12 | alvocidib -0.017 | Tubastatin A 0.054 | [1] 0.087 | defactinib 0.045 | [2] -0.018 | [3] 0.069

NUDT2 (UniProt P50583)
inactive: saracatinib 0.003 | sotrastaurin -0.041 | alvocidib 0 | Tubastatin A -0.025 | [1] -0.042 | defactinib -0.009 | [2] 0 | [3] 0.123

OGFOD1 (UniProt Q8N543)
inactive: saracatinib 0.007 | sotrastaurin 0.024 | Tubastatin A -0.163 | [1] 0.012 | defactinib -0.027 | rucaparib -0.051 | [2] -0.028 | encorafenib -0.028 | [3] 0.041
